Paper PMC9273934
Results are given in words; binding and its absence hold for the method and conditions named. Binding calls can cover weak binding; strength is not graded here.

Target: T1, scavenger receptor class B type I on CHO cells (human) (UniProt Q8WTV0)
T1 sequence: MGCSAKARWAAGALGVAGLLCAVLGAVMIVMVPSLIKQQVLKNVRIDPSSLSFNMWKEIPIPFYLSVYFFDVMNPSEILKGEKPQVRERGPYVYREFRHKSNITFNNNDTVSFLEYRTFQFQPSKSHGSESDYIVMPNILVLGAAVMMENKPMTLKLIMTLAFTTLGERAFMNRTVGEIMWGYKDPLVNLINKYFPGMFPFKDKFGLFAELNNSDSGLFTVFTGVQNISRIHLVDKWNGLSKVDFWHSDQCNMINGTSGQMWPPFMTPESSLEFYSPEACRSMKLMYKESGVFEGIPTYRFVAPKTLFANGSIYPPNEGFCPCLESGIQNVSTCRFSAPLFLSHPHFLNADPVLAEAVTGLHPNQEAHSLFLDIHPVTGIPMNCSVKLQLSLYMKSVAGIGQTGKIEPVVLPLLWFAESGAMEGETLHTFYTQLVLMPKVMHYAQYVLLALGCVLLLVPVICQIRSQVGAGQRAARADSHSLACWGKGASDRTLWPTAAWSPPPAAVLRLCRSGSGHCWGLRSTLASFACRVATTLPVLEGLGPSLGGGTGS
Experiment: flow cytometry on cells; 10 ug Fc-E1E2 with CHO cells stably expressing CD81 or SR-BI (or parental CHO), 2 h at room temperature; PE anti-human IgG Fc; only the binder purified

Row | Substance | binding
1 | Fc-E1E2 from H77 (GT1a), recombinant full-length E1E2 heterodimer (hepatitis C virus, strain H77 (GT1a)) (complex) | binds
2 | Fc-E1E2 from HK6a (GT6a), recombinant full-length E1E2 heterodimer (hepatitis C virus, strain HK6a (GT6a)) (complex) | binds
3 | Fc-E1E2 from J6 (GT2a), recombinant full-length E1E2 heterodimer (hepatitis C virus, strain J6 (GT2a)) (complex) | binds
4 | Fc-E1E2 from S52 (GT3a), recombinant full-length E1E2 heterodimer (hepatitis C virus, strain S52 (GT3a)) (complex) | binds
